Assay results taken from PMC10718020.

Chains of the proteins cited; added tags and fusions are not shown. Residues count along the entry.
UniProt P78527: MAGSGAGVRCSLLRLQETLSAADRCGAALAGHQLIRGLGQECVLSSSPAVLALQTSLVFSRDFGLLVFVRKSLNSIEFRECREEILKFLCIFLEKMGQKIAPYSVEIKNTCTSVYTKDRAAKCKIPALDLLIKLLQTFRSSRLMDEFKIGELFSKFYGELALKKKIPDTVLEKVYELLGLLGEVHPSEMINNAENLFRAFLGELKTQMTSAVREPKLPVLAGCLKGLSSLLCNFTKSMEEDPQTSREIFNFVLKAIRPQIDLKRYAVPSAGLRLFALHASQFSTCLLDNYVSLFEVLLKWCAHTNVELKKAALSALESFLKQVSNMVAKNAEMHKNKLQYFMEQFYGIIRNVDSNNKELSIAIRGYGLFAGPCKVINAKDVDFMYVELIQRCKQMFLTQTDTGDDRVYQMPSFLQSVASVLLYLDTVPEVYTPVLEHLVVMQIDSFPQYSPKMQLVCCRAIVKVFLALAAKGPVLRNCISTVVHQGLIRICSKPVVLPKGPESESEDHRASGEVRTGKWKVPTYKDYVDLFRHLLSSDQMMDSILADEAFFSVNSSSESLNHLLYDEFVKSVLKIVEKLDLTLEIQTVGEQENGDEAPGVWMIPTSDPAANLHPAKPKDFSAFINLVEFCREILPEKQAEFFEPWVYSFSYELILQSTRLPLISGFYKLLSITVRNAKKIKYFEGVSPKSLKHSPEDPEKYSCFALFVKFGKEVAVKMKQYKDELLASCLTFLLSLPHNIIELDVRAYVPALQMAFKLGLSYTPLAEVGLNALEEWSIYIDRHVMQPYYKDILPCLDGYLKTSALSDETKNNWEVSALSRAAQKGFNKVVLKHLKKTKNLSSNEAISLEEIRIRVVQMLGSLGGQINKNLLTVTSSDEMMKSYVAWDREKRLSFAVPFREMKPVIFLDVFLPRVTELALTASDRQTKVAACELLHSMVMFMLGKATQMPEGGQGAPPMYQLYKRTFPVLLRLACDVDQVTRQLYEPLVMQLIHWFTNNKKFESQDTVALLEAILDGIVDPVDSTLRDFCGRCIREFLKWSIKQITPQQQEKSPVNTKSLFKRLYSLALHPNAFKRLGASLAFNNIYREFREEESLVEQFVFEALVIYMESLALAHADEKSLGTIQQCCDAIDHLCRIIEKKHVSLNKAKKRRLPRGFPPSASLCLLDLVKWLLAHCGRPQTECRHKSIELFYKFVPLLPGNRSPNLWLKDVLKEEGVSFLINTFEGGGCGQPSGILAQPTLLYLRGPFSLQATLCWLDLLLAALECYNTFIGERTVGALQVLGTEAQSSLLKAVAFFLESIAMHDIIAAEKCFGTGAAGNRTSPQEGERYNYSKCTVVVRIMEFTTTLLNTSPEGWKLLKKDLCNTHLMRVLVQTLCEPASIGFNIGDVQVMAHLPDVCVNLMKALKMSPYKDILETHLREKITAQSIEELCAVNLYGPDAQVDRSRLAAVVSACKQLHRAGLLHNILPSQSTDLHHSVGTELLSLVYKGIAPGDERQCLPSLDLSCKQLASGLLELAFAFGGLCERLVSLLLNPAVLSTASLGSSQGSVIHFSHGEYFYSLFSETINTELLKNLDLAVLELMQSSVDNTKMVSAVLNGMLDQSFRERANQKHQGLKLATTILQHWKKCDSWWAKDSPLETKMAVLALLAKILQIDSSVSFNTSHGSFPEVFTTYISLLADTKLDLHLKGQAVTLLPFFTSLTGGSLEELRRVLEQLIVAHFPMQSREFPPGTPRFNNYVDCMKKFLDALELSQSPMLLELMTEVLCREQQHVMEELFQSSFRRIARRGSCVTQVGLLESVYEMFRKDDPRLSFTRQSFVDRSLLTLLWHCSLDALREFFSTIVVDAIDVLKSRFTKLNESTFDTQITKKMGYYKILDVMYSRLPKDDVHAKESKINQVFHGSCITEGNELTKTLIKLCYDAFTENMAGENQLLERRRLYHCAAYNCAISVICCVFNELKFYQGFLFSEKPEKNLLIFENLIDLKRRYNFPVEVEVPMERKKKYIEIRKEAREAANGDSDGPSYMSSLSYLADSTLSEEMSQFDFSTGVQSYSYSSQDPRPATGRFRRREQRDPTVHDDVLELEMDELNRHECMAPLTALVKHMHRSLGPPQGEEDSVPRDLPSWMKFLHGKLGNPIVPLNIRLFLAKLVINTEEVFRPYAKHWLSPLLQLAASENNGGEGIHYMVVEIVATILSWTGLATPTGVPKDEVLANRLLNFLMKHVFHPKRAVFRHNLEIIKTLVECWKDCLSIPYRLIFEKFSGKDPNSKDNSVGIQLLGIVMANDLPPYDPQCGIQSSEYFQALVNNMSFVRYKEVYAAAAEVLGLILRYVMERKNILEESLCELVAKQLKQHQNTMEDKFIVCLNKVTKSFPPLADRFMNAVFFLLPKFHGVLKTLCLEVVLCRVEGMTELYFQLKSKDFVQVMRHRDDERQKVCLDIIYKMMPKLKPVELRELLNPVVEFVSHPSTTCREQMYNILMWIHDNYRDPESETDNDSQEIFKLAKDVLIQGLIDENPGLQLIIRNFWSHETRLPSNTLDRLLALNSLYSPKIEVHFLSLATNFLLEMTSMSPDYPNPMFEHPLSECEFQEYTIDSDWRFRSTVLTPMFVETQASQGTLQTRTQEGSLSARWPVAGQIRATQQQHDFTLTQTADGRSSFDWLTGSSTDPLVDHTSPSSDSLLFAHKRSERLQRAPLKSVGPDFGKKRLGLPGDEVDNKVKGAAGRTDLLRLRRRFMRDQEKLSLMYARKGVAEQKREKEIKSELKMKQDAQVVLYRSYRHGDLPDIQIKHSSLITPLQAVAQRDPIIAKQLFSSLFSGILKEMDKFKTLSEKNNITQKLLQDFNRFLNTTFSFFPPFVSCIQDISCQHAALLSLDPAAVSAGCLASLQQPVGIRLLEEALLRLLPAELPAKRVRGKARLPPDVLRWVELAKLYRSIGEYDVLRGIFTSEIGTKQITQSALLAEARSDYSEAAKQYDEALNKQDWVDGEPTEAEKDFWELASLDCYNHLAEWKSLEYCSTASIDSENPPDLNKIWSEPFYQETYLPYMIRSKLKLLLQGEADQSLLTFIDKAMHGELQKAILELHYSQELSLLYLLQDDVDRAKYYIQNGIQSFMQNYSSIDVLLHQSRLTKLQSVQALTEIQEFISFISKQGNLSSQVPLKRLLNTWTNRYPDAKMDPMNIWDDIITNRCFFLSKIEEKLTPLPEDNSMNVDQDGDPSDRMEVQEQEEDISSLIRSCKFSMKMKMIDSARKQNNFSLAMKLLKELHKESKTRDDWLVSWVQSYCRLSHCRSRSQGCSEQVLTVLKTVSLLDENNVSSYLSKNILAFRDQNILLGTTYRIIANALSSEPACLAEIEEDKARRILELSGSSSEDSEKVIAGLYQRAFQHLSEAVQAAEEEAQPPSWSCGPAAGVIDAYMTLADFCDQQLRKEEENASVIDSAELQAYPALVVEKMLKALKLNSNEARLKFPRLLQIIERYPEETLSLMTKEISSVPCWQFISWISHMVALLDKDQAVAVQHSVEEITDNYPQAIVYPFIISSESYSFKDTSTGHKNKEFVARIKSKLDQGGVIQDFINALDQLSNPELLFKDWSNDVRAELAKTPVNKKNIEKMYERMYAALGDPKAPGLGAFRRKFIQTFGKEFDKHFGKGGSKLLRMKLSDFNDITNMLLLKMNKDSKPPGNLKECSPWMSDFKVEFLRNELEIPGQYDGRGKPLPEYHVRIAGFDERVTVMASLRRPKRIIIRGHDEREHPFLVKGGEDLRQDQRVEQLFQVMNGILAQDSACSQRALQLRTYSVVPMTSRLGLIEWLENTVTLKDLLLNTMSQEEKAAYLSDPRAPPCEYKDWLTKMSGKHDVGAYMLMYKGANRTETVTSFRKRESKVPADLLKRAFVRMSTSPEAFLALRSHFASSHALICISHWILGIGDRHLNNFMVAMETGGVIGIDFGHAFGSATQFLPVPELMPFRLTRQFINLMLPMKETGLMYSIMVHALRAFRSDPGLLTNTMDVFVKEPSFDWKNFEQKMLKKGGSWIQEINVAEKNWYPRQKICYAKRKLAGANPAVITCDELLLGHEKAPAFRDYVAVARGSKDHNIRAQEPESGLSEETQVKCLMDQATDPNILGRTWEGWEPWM
UniProt Q9NZQ7, residues 19-290: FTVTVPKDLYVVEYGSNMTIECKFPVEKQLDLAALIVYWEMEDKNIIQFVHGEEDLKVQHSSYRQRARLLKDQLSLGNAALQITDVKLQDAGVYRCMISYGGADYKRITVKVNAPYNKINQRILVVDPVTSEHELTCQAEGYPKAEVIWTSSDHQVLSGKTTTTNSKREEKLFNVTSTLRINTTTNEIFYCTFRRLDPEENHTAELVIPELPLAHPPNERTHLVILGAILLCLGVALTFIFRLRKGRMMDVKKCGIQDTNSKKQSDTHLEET

Target: DNA-dependent protein kinase (DNA-PK), PRKDC encoded protein DNA-PKcs, in HEK-293 T cells (human) (UniProt P78527)
Test: affinity purification with mass spectrometry; DNA-PK antibody pull-down in HEK-293 T cells, then modification mass spectrometry analysis

Substance: Programmed cell death 1 ligand 1 (PD-L1), in HEK-293 T cells (from UniProt Q9NZQ7 19-290)
- binding: binds

No constants are given. Whether binding was seen depends on the method and setting. Binding seen in cells or lysates may run through a third protein. Here binding means that the protein was enriched with, or labelled near, the bait; the list need not be complete.
